Results are given in words; binding and its absence hold for the method and conditions named. Binding seen in cells or lysates may run through a third protein. Some results given as binding are weak or reduced against the parent protein; the word gives no strength.
Biological target: Sp1 (human (endogenous in QGY7701)) (UniProt P08047)
Assay: co-IP; QGY7701 cell lysate; Sp1, P-Smad2 or P-Smad3 antibody or control IgG, agarose-protein G beads, 6 h, washed five times in PBS, eluted in Laemmli buffer, western blotting; reciprocal

Sequences of proteins named here, by UniProt entry; tags and fusion partners are left off.
UniProt P08047: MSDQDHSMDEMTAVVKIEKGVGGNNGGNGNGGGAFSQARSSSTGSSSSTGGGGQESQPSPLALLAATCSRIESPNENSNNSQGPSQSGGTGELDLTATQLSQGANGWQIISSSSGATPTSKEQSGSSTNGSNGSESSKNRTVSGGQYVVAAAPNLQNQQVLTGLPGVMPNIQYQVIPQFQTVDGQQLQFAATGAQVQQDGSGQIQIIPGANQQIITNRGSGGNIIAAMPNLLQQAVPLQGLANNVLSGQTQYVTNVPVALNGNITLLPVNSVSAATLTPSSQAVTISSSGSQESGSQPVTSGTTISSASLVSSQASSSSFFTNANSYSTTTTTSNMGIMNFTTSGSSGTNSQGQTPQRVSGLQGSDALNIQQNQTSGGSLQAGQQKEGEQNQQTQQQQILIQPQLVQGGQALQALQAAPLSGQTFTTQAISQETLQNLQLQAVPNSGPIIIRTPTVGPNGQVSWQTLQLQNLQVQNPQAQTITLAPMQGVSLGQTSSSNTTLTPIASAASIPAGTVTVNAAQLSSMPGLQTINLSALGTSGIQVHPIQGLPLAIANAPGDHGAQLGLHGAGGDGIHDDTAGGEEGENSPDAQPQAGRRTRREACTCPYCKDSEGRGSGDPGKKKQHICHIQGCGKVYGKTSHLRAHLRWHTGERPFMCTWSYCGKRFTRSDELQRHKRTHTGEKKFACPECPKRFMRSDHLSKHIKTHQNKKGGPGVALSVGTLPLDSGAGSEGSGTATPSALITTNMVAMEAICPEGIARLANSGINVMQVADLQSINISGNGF
UniProt Q15796: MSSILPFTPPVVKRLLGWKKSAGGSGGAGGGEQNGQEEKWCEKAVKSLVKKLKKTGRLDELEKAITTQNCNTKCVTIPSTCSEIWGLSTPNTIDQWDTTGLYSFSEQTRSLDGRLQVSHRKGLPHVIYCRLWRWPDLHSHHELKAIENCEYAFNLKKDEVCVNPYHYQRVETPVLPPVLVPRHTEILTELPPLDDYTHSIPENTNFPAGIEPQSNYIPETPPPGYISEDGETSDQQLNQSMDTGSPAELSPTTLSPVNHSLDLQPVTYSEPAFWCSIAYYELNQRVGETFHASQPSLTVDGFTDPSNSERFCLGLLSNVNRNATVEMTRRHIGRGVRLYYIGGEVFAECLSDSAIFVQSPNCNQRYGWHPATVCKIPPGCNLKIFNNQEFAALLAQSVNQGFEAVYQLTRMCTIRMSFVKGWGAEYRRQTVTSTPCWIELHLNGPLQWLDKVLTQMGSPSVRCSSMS
UniProt P84022: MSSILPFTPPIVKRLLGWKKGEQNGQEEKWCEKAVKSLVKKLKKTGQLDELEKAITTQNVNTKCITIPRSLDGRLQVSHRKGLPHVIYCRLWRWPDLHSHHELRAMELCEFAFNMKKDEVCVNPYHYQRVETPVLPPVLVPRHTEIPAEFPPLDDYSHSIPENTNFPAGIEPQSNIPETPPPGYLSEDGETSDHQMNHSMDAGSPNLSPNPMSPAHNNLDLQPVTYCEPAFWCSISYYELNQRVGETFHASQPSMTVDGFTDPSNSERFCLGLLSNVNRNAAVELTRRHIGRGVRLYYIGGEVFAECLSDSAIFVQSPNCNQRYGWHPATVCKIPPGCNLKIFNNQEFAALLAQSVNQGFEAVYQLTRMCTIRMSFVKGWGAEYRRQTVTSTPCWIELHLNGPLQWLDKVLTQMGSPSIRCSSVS

binding | Substance
binds | P-Smad2 (from UniProt Q15796 1-467)
binds | P-Smad3 (from UniProt P84022 1-425)

Reference: PMC6692328
